Data as given in paper PMC7260724, “ABAS1 from soybean is a 1R-subtype MYB transcriptional repressor that enhances ABA sensitivity”.
For some of these results: Weaker means in comparison with the reference protein, sequence or condition of that experiment. For some of these results: Tags and fusion partners may be left off the protein sequences shown. For some of these results: For at least one entry, the source does not settle the construct or the ends of the probe. For some of these results: A negative result means that nothing was seen under these conditions. For some of these results: At least one verdict was read from the data and is not stated in words by the source.

Tests used:
GST-GmABAS1 [1] = biological target: T1, GST-GmABAS1 (UniProt A0A3Q9B5G2); test: competition with a labelled probe; conditions: 150 mM KCl, 10 mM Tris pH 7.4, 0.1 mM EDTA, 0.1 mM DTT, EDTA-free protease inhibitor, room temperature 20 min, recombinant protein, residues 1-289, protein details: N-terminal GST (pGEX-4T-1)
T1 sequence (looked up): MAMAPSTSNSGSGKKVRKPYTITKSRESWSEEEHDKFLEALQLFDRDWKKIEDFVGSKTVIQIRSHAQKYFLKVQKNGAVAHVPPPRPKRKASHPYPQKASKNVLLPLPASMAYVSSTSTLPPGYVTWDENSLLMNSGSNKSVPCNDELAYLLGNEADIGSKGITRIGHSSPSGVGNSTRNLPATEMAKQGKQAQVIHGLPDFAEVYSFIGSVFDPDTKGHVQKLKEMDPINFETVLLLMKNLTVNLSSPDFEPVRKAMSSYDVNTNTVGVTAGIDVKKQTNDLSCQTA

GST = test: EMSA; conditions: tag-only control; 150 mM KCl, 10 mM Tris pH 7.4, 0.1 mM EDTA, 0.1 mM DTT, EDTA-free protease inhibitor; room temperature 20 min; recombinant protein; protein details: GST; label: none (SYBR Green stain)
GST-GmABAS1 [2] = biological target: T1, GST-GmABAS1; test: EMSA; conditions: 150 mM KCl, 10 mM Tris pH 7.4, 0.1 mM EDTA, 0.1 mM DTT, EDTA-free protease inhibitor; room temperature 20 min; recombinant protein; residues 1-289; protein details: N-terminal GST (pGEX-4T-1); label: none (SYBR Green stain)

TGAAAAATCGTGTAAAAAAAAAAACGTG (double strand) [Glyma.01G060300 mutated probe]
binding result (GST-GmABAS1 [1]; 500 pmol unlabelled mutated competitor vs 10 pmol 6-FAM native probe): binds more weakly

TGAAAAATCGTGTCAGTGTCGCCACGTG (double strand) [Glyma.01G060300 native probe]
binding result (GST): no binding | binding result (GST-GmABAS1 [1]; 100-500 pmol unlabelled native competitor vs 10 pmol 6-FAM native probe, label: none (SYBR Green stain)): binds

TTTTTTTTTTTTTTTTTTTTTTTTTTTT (double strand) [oligo(T)-oligo(A) probe]
binding result (GST-GmABAS1 [2]): binds more weakly
